For this experiment, the target named is 6xHis-2xMsb-D3^D720K (full-length rice D3 with D720K) (O. sativa (rice)) (UniProt Q5VMP0). The experiment in a line: co-purification.

Protein sequences, listed by entry. Tags and fused reporters are not part of them. Lines headed by an entry give the natural chain unless they say otherwise; changes in a name come on top.
UniProt Q5VMP0: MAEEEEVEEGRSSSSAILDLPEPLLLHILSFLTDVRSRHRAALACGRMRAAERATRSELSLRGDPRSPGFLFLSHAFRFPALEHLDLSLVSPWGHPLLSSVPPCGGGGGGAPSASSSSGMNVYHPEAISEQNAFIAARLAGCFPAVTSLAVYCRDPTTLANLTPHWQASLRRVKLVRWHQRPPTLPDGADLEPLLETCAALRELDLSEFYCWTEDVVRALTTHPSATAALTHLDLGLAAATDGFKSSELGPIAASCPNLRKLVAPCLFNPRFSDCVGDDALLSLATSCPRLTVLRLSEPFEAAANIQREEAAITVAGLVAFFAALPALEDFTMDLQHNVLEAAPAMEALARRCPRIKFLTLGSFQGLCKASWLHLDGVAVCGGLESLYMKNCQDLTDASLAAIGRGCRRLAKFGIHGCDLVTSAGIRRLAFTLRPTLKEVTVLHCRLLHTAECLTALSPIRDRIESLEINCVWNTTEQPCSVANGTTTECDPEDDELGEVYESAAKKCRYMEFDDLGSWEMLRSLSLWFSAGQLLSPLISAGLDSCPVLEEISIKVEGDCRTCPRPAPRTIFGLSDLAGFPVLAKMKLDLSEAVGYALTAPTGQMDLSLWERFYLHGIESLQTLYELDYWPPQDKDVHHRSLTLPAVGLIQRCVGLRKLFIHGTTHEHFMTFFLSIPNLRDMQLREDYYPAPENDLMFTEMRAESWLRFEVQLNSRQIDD
UniProt Q39255: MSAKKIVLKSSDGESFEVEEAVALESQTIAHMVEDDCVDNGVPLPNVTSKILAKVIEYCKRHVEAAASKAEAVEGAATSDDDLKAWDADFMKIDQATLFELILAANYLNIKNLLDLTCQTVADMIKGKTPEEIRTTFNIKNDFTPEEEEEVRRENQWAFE

These are yes or no findings as the source states them, for the method shown. Binding seen in cells or lysates may run through a third protein. Binding can be weak; no strength is given.

Consider “ASK1 (A. thaliana), untagged (from UniProt Q39255 1-160)”, for which the binding result is listed as “binds”.

For the origin of these results see doi:10.1101/2023.01.19.524830.
